# Experimental data from PubChem BioAssay AID2685 (National Center for Advancing Translational Sciences (NCATS), 2010).
# This is one part of the list. Further columns of the screen follow, without active or inactive calls. Compounds called inactive in the main read-out are mostly missing here. Words in brackets tell the shape of the fitted curve; partial curves, single points and poor fits give uncertain potencies.
# Test: qHTS Assay for Lipid Storage Modulators in Drosophila S3 Cells;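 for cell number change: cells counted by Cell Tracker Red CMTPX staining in the red channel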
# Details: BODIPY lipid droplet fluorescence, 18-24 h; for cell number change: measured here: cell count max response, cells fed with added oleic acid
# How it was run: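 Drosophila S3 cells got compounds at several concentrations plus oleic acid (400 uM solution). Laser-scanning cytometry with 488 nm excitation read lipid droplets at 500-530 nm and cells at 575-640 nm. Percent activity was relative to 20 uM Triacsin C.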
# [1] = measured here: cell number channel AC50, cells fed with added oleic acid
# [2] = measured here: lipid fluorescence (Fed channel) AC50, cells fed with added oleic acid
Compound,cell number change [%],AC50 [1],AC50 [2]
CN1CCN(C(=O)/C=C/c2cn(-c3ccccc3)nc2-c2ccc3c(c2)OCCO3)CC1,81.7,"0.146 µM [rising, full curve, poor fit]","0.103 µM [rising, full curve, poor fit]"
COc1cccc(NC(=S)/C(=C(\[O-])c2ccc(OC(F)F)cc2)[n+]2ccccc2)c1,4.69,,"6.51 µM [rising, single point]"
CCCN(CC(=O)Nc1ccccc1C)C(=O)c1ccc(S(=O)(=O)N2CCCC2)cc1,-1.98,"0.58 µM [falling, full curve]","0.58 µM [falling, full curve]"
COC(=O)C1=C(C)N=C2SC(C)C(=O)N2C1c1cccs1 (stereo not drawn),-15.5,,
CC1(C)Cc2nc(N3CCOCC3)c(C#N)cc2CO1,21.5,,"18.4 µM [falling, partial curve]"
COCCn1c(N)c(C#N)c2nc3ccccc3nc21,46.4,"9.2 µM [rising, partial curve, poor fit]","16.4 µM [rising, partial curve]"
Cc1cc(OCc2nn[nH]n2)c2c(-c3ccccc3)cc(=O)oc2c1,,,"16.4 µM [rising, single point]"
NC(=O)C(c1ccccn1)c1ncc(C(F)(F)F)cc1Cl (stereo not drawn),126,"0.00517 µM [falling, full curve, poor fit]",
Cc1ccc(C(=O)NC(C(=O)OCc2cn3cc(Cl)ccc3n2)C(C)C)cc1 (stereo not drawn),,,"7.31 µM [falling, partial curve, poor fit]"
S=C(NCCN1CCOCC1)NC1CCCCC1,-0.0098,,"29.1 µM [falling, single point]"
O=C(COC(=O)c1ccc2ncsc2c1)Nc1cccc(Cl)c1,31.7,"13 µM [rising, single point]","5.8 µM [rising, partial curve]"
Cc1ccc(CSc2nnc3nc(C)cc(C)n23)cc1,54,"23.1 µM [rising, partial curve]",
O=C(C#Cc1ccccc1)c1cccc([N+](=O)[O-])c1,-36.2,"8.2 µM [falling, partial curve]","29.1 µM [falling, single point]"
O=C(COC(=O)c1ccc2c(c1)OCCO2)Nc1ccc(F)cc1,67.5,"13 µM [rising, partial curve]",
CCOC(=O)c1c(NC(=O)c2ccc(C)cc2)sc2c1CC(C)(C)OC2,48.6,"0.731 µM [rising, full curve, poor fit]","0.58 µM [rising, single point]"
CCCNC(=O)Nc1cc(OC)c(OC)cc1Cc1nccc2cc(OC)c(OC)cc12,,,"3.26 µM [rising, single point]"
CCN(CC)c1ccc(-c2nc3cnccc3n2C)cc1,-8.43,,"3.26 µM [rising, partial curve, poor fit]"
Cc1ccc(Oc2nnc(-c3cccs3)c3ccccc23)cc1C,-13.9,,"0.651 µM [rising, partial curve, poor fit]"
Cn1cccc1/C=N/NC(=O)CNc1ccc2ccccc2c1,15.6,"2.31 µM [rising, single point]","2.06 µM [rising, partial curve, poor fit]"

# In the list so far, 3 have fluorine:
Compound,cell number change [%],AC50 [1],AC50 [2]
COc1cccc(NC(=S)/C(=C(\[O-])c2ccc(OC(F)F)cc2)[n+]2ccccc2)c1,4.69,,"6.51 µM [rising, single point]"
NC(=O)C(c1ccccn1)c1ncc(C(F)(F)F)cc1Cl (stereo not drawn),126,"0.00517 µM [falling, full curve, poor fit]",
O=C(COC(=O)c1ccc2c(c1)OCCO2)Nc1ccc(F)cc1,67.5,"13 µM [rising, partial curve]",

# (more compounds)

Compound,cell number change [%],AC50 [1],AC50 [2]
COc1ccccc1NC(=O)CN1CCN(CC(=O)Nc2ccc(S(N)(=O)=O)cc2)CC1,,"6.51 µM [rising, single point]",
CSc1nc(NCCOCCO)c2sc3nc(-c4ccco4)c4c(c3c2n1)CCC4,20.7,"1.64 µM [rising, full curve, poor fit]","6.51 µM [rising, single point]"
Cc1nnc2ccc(-c3cccc(NC(=O)c4ccc(Cl)nc4)c3)nn12,-23.7,,"1.84 µM [falling, full curve, poor fit]"
CCn1c(COc2ccc3c(c2)OCO3)nnc1SCC(=O)c1ccc(Cl)cc1,20.5,,"0.291 µM [rising, partial curve, poor fit]"
CCCN(CC(=O)Nc1ccccc1C)CC(=O)Nc1ccc(Br)cc1F,,,"29.1 µM [rising, single point]"
OC(CNc1nc(C(F)(F)F)nc2ccccc12)c1ccccc1 (stereo not drawn),-11.5,,
CC(C)c1ccc(S(=O)(=O)/N=C2\C=C(NS(=O)(=O)c3ccccc3)C(=O)c3ccccc32)cc1,-19.7,,"35.5 µM [rising, single point]"
Cc1ccc(S(=O)(=O)CC(=O)Nc2nc3ccccc3s2)cc1,1.35,,"29.1 µM [rising, single point]"
O=C(N1CCN(c2ccccc2F)CC1)C12CC3CC(CC(C3)C1)C2,,"6.51 µM [rising, single point]",
CCc1ccc(N(CC(=O)NCC2CCCO2)C(=O)CCC(=O)Nc2nccs2)cc1 (stereo not drawn),-1.28,,
CCOC(=O)C(CC(=O)O)=C(c1ccccc1)c1ccccc1,27,,"6.51 µM [falling, single point]"
Cn1c(=O)c(C(=O)Nc2cnccn2)c(O)c2ccccc21,0.619,,
COc1cccc(Nc2nc3ccccc3n3nnnc23)c1,95.8,"1.84 µM [rising, full curve]","1.84 µM [rising, full curve]"
CCCN(CC(=O)Nc1ccccc1OC)C(=O)c1ccc(=O)[nH]c1,-13.9,,
Cc1nc(-c2ccccc2)sc1C1(C)CC(c2c(Cl)cccc2Cl)=NO1 (stereo not drawn),-6.06,,
Cc1noc(C)c1COC(=O)Cc1ccc(Br)cc1,-41.4,"20.6 µM [falling, single point]","0.58 µM [falling, single point]"
CC(C)(C)c1ccc(OCCOc2ccc(C(C)(C)C)cc2NC=O)c(NC=O)c1,-61.3,"18.4 µM [falling, single point]","29.1 µM [falling, single point]"
CC(=O)Nc1ccc(SCC(=O)OCC(=O)NC(=O)NCc2ccco2)cc1,-16.6,"0.366 µM [falling, full curve, poor fit]","0.731 µM [falling, full curve, poor fit]"
O=C(CSc1nnc(-c2cccc(S(=O)(=O)N3CCOCC3)c2)n1C1CCCCCC1)NCc1ccccc1,-18.6,,

Compound,cell number change [%],AC50 [1],AC50 [2]
O/N=C(\c1ccc(Cl)cc1Cl)c1ncc(C(F)(F)F)cc1Cl,-31.4,"16.4 µM [falling, single point]","5.8 µM [falling, full curve]"
CN1C(=S)N(c2ccccc2)C(=O)/C1=C/c1ccco1,-64.6,"23.1 µM [falling, single point]","23.1 µM [falling, single point]"
O=C(NC(Cc1c[nH]c2ccccc12)C(=O)NCc1ccc(F)cc1)OCc1ccccc1 (stereo not drawn),,"3.26 µM [rising, partial curve]","0.517 µM [rising, partial curve, poor fit]"
CN1C(C(=O)NCc2ccc(OC(F)(F)F)cc2)CC2Cn3c(nc4ccccc43)C21 (stereo not drawn),13.5,,"10.3 µM [rising, partial curve]"
COc1cccc(-c2nc3ccccc3s2)c1,-22.9,,"29.1 µM [rising, single point]"
CCCCOC(=O)c1ccc(NC(=O)C(=O)NCCN(CC)CC)cc1,21.5,,
CSc1nnc(CNS(=O)(=O)c2ccc(Cl)cc2)n1C,141,"18.4 µM [rising, partial curve]","6.51 µM [rising, single point]"
CN(C)c1ccc(CN(C(=O)COc2ccc(Br)cc2)C2CCS(=O)(=O)C2)cc1 (stereo not drawn),-8.98,,"4.61 µM [rising, full curve]"
Cc1ccc2[nH]cc(CCNC(=O)C3CCCCC3)c2c1,22.8,"7.31 µM [rising, partial curve, poor fit]",
O=C1C=C(c2ccc(Cl)c(C(F)(F)F)c2)C[C@@H](c2ccc3c(c2)OCO3)C1,5.22,"2.06 µM [falling, single point]","6.51 µM [falling, single point]"
COc1ccc(CN2CCN(C3CCC3)CC2CCO)cc1C (stereo not drawn),7.97,,
COc1ccccc1OCc1nnc(SCC(=O)N2CCCC2)o1,-17.1,,"14.1 µM [rising, single point]"
Cc1ccc(S(=O)(=O)NCCC(=O)OCC(=O)Nc2cccc(S(=O)(=O)NC3=NCCCCC3)c2)cc1,-15.6,"0.0517 µM [falling, full curve, poor fit]",
COc1ccc(COc2ccsc2C(=O)Nc2ccc(Cl)c(Cl)c2)cc1,16.2,,"8.2 µM [rising, partial curve, poor fit]"
Cc1ccnc(SCCn2c(N3CCCCC3)nc3c2c(=O)n(C)c(=O)n3C)n1,,"5.8 µM [rising, single point]","0.184 µM [falling, full curve, poor fit]"
CCN(CC)C(=O)COC(=O)c1ccc(O)cc1,,,"4.11 µM [falling, partial curve, poor fit]"
COc1ccc(NC(=O)CN2C(=O)COc3ccc(S(=O)(=O)N4CCOCC4)cc32)cc1,-8.36,,"4.11 µM [rising, partial curve, poor fit]"
O=C(CN1CCOCCOCCOCC1)Nc1ccccc1,2.32,,"1.16 µM [falling, full curve]"
Cc1noc(C)c1-c1ccc2ncnc(NCC3CCCCN3C)c2c1 (stereo not drawn),-10.5,,

# 2 entries picked at random from the list so far, as already listed:
Compound,cell number change [%],AC50 [1],AC50 [2]
CSc1nc(NCCOCCO)c2sc3nc(-c4ccco4)c4c(c3c2n1)CCC4,20.7,"1.64 µM [rising, full curve, poor fit]","6.51 µM [rising, single point]"
CN1C(C(=O)NCc2ccc(OC(F)(F)F)cc2)CC2Cn3c(nc4ccccc43)C21 (stereo not drawn),13.5,,"10.3 µM [rising, partial curve]"
